{"source": "the supplement of paper PMC7824004", "note": "The other results are listed elsewhere or left out. The data scatter; read single values as rough.", "data": [{"tested_on": "Candida albicans SN425", "assay": "biofilm OD600 B-score; higher = more biofilm (less inhibition)", "settings": "10 µM; assay detail: High-throughput adherence inhibition optical density biofilm assay with C. albicans SN425 in RPMI-1640/MOPS pH 7.0, 384-well plates. …", "experimental": "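High-throughput adherence inhibition optical density biofilm assay with C. albicans SN425 in RPMI-1640/MOPS pH 7.0, 384-well plates. Compound (10 µM) was present only during the 90 min adherence step, then washed out, and the biofilm grew 24 h without compound. Biofilm was read as OD600 after removing the media. Scores are the difference from the mean in standard deviations and the plate B-score.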", "values": [{"smiles": "CC(=O)Nc1ccccc1NC(=O)c1cccc(F)c1", "biofilm OD600 B-score": -1.1}, {"smiles": "Cc1ccc(N2CC(C(=O)NCC3CCCO3)CC2=O)cc1", "note": "(stereo not given)", "biofilm OD600 B-score": 4.13}, {"smiles": "CCOc1ccc(NC(=O)Nc2ccc3snnc3c2)cc1", "biofilm OD600 B-score": -3.26}, {"smiles": "COc1cc(Cl)c(S(=O)(=O)NCCN2CCOCC2)cc1Cl", "biofilm OD600 B-score": -0.296}, {"smiles": "COC1=C(N2CCOCC2)C(=O)c2ccccc2C1=O", "biofilm OD600 B-score": 0.328}, {"smiles": "COc1ccccc1OCCCSC#N", "biofilm OD600 B-score": 0.887}, {"smiles": "Cc1nc(SCC(N)=O)c(C#N)c(C)c1C", "biofilm OD600 B-score": -3.5}, {"smiles": "COc1ccc(CC(=O)Nc2c(C)cccc2C)cc1", "biofilm OD600 B-score": -1.09}, {"smiles": "CCN(CC)C(=O)C1CCCN(Cc2ccc3c(c2)OCO3)C1", "note": "(stereo not given)", "biofilm OD600 B-score": -0.0177}, {"smiles": "O=C(Nc1cccc(Cl)c1)NC1CC1", "biofilm OD600 B-score": 2.9}, {"smiles": "Nc1ccc(Oc2ccc(N)c(N)c2)cc1", "biofilm OD600 B-score": -7.16}, {"smiles": "O=C(Nc1ccc(C(=O)N2CCOCC2)cc1)C1COc2ccccc2O1", "note": "(stereo not given)", "biofilm OD600 B-score": 0.376}, {"smiles": "COc1ccccc1CC(=O)Nc1ccccc1NC(C)=O", "biofilm OD600 B-score": 0.493}, {"smiles": "NCCSC12CC3CC(CC(C3)C1)C2", "biofilm OD600 B-score": 0.555}, {"smiles": "CCN1CCN(CC(O)COc2ccc3c(c2)CCC3)CC1", "note": "(stereo not given)", "biofilm OD600 B-score": -1.53}, {"smiles": "CC(NC(=O)c1ccccc1)C(O)c1ccccc1", "note": "(stereo not given)", "biofilm OD600 B-score": -0.0607}, {"smiles": "COc1ccc(N2CCN(C(=O)Nc3ccccc3)CC2)cc1", "biofilm OD600 B-score": -1.54}, {"smiles": "COc1ccc(-c2nc(N)sc2C)c(OC)c1", "biofilm OD600 B-score": 0.13}, {"smiles": "Cc1cc(OCCN2CCN(C)CC2)ccc1C(C)C", "biofilm OD600 B-score": 0.519}, {"smiles": "Cn1c(NC(=O)Cc2ccc(Cl)cc2)cc(=O)n(C)c1=O", "biofilm OD600 B-score": -3.16}, {"smiles": "O=C(NC1CCCCC1)N1CCCc2ccccc21", "biofilm OD600 B-score": 0.381}, {"smiles": "CN1CCCN(CC2CC3C=CC2C3)CC1", "note": "(stereo not given)", "biofilm OD600 B-score": -0.804}, {"smiles": "O=C(Nc1ccc(N2CCOCC2)cc1)Nc1ccc2snnc2c1", "biofilm OD600 B-score": 0.483}, {"smiles": "CCCSc1nc(C)cc(COC)c1C#N", "biofilm OD600 B-score": 0.917}, {"smiles": "Cc1cc(N2CCC(C)CC2)nc(-n2nc(C)cc2C)n1", "biofilm OD600 B-score": -0.148}, {"smiles": "CC(CC(=O)NCC1CCCO1)c1ccccc1", "note": "(stereo not given)", "biofilm OD600 B-score": 2.36}, {"smiles": "COc1cccc(C(=O)Nc2ccccc2C(=O)NC(C)C)c1", "biofilm OD600 B-score": 0.533}, {"smiles": "CCc1ccc(OCCNC(C)(C)C)cc1", "biofilm OD600 B-score": -1.57}, {"smiles": "O=C(O)Cn1c(=O)n(CC(=O)O)c2ccccc21", "biofilm OD600 B-score": 0.776}, {"smiles": "COc1ccc(-c2[nH]ncc2-c2ccc(F)cc2)c(O)c1", "biofilm OD600 B-score": 0.253}, {"smiles": "CN(C)CCCC(=O)c1ccc2c(c1)OCO2", "biofilm OD600 B-score": -2.18}, {"smiles": "O=C1C2CCCCC2C(=O)N1c1nc2ccccc2s1", "note": "(stereo not given)", "biofilm OD600 B-score": 0.48}, {"smiles": "CCN(CC)C(=O)c1ccccc1NC(=O)c1ccco1", "biofilm OD600 B-score": -1.85}, {"smiles": "CC(=O)Nc1cccc(NC(=O)c2ccccc2Cl)c1", "biofilm OD600 B-score": -0.126}, {"smiles": "O=S(=O)(NCc1ccco1)c1cccs1", "biofilm OD600 B-score": -1.4}, {"smiles": "O=C(N1CCCCCC1)C12CC3CC(CC(C3)C1)C2", "biofilm OD600 B-score": 2.04}, {"smiles": "CCC1CCC(NCCN2CCOCC2)CC1", "note": "(stereo not given)", "biofilm OD600 B-score": -3.58}, {"smiles": "O=C(NCCCN1CCCC1)c1ccc(F)cc1", "biofilm OD600 B-score": 0.00801}, {"smiles": "CC(=O)Nc1cccc(S(=O)(=O)N2CCCCCC2)c1", "biofilm OD600 B-score": 1.74}, {"smiles": "CCS(=O)(=O)N1CCN(c2cccc(C)c2C)CC1", "biofilm OD600 B-score": -0.167}]}]}
